## Percent effect of library compounds

The chains behind the UniProt entries cited, without tags or fusion partners. Residues count along the entry.
UniProt I6X8D2, whole entry: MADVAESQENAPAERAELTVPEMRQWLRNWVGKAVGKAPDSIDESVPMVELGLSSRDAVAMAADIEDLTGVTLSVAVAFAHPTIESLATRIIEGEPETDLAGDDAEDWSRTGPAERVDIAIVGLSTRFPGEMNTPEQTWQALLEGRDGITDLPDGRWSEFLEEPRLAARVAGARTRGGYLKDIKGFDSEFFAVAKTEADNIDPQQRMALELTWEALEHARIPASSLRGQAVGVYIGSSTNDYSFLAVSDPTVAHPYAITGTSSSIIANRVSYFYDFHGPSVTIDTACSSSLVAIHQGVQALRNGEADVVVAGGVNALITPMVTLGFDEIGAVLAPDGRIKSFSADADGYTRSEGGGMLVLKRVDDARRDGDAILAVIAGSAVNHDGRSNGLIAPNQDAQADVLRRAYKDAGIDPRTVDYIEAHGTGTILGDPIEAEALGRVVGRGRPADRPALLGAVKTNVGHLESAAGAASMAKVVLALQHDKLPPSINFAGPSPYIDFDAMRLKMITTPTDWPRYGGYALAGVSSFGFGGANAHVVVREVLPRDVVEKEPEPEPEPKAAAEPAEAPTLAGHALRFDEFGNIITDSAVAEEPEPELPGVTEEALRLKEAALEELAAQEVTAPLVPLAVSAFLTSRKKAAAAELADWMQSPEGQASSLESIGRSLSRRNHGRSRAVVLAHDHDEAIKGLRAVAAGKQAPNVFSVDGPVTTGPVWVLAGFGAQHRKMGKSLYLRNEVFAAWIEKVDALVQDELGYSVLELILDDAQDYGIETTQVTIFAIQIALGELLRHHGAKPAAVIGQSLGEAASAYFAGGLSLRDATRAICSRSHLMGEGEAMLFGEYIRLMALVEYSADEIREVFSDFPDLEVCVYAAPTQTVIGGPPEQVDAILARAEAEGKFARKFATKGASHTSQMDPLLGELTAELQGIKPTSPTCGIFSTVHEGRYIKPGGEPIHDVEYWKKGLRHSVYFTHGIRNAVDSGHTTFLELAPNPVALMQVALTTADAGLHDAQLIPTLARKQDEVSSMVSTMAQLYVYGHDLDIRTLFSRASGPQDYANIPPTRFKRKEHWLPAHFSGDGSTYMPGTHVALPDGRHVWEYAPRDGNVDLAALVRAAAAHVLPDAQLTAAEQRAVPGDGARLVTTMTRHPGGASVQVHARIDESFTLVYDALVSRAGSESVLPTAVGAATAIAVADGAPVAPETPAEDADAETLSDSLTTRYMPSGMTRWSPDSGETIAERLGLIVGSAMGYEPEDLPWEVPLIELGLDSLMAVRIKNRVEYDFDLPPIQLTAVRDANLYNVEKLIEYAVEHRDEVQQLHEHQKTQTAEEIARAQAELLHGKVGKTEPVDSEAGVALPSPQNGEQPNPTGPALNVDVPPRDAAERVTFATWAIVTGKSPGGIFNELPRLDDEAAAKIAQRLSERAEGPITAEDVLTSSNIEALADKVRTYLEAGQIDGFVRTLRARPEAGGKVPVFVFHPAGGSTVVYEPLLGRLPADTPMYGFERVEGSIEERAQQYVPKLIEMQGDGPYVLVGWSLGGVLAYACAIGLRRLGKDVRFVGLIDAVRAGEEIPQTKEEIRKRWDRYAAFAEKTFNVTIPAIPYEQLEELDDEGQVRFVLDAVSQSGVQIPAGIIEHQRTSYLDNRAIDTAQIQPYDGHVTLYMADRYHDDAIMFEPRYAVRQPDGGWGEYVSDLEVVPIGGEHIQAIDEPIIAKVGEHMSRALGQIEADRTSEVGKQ
UniProt P9WFT3, whole entry: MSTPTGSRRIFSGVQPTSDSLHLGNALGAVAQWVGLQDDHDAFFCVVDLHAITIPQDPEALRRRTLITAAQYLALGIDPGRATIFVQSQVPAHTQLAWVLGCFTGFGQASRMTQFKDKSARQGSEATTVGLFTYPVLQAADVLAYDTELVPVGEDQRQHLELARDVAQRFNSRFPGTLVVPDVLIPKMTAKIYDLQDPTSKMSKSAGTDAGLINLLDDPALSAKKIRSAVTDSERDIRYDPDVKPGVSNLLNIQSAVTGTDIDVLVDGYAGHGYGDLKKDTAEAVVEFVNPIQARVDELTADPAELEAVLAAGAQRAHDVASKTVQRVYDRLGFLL
UniProt P9WNZ1, whole entry: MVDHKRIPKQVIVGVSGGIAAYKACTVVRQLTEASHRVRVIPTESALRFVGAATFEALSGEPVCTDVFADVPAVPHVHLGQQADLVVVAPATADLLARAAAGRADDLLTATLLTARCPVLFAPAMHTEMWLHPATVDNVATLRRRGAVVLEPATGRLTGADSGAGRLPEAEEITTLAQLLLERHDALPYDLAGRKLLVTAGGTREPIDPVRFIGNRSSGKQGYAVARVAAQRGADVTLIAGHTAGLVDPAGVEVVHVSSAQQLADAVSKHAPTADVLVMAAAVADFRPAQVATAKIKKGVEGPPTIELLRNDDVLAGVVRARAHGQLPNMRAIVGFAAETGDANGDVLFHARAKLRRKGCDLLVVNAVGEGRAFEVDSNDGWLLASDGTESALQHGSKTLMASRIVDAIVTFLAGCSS
UniProt Q8IDJ8, 1-583: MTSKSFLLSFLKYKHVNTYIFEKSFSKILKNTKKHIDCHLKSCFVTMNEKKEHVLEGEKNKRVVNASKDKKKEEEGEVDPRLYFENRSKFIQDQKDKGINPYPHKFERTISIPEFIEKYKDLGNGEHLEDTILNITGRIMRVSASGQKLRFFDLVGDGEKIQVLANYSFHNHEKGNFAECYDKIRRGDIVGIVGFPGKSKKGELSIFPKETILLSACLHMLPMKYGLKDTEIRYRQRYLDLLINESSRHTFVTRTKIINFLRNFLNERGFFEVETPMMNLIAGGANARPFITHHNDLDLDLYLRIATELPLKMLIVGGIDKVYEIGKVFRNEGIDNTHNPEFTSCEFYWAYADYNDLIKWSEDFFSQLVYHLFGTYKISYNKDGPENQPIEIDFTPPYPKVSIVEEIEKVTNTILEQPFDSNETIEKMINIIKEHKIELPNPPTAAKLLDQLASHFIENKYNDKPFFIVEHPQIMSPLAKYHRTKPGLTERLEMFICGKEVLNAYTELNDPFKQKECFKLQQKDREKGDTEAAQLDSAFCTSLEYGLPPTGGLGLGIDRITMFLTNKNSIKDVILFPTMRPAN

Pks13 thioesterase: 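Polyketide synthase Pks13, Mycobacterium tuberculosis (UniProt I6X8D2). Enzyme assay of the thioesterase domain of polyketide synthase 13; the read-out is not stated. Tested at 30 µM. Higher reads as stronger inhibition (inferred from which compounds were picked for retests). About 67,000 compounds were tested under these conditions; 0.46% (about 300) showed 50% or more at least once.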
MtTrpRS: 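Tryptophan-tRNA ligase, Mycobacterium tuberculosis (UniProt P9WFT3). Enzyme assay of tryptophanyl-tRNA synthetase; the read-out is not stated. Tested at 10 µM. Higher most likely means stronger inhibition; the record gives no direction and few retests gave an IC50. Of about 65,000 compounds tested this way, about 64 (0.098%) reached 50% or more in at least one test.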
CoaBC: 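Enzyme assay of CoaBC with a phosphate dye (Biomol Green) read at 650 nm. Target: Coenzyme A biosynthesis protein CoaBC, Mycobacterium tuberculosis (UniProt P9WNZ1). Concentration: 30 µM. Higher reads as stronger inhibition, judged from the few compounds that gave an IC50. Most strong results did not repeat in a second test. About 67,000 compounds were tested under these conditions; 0.06% (about 40) showed 50% or more at least once.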
PfKRS1: 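Enzyme assay of the cytosolic lysyl-tRNA synthetase in 384-well plates, read by luminescence. Target: Lysine-tRNA ligase, Plasmodium falciparum 3D7 (UniProt Q8IDJ8). Compounds at 30 µM. Direction is inferred from only a few compounds that gave an IC50; most scored high, so higher reads as stronger inhibition. About 69,000 compounds were tested under these conditions; 0.071% (about 49) showed 50% or more at least once.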

The filed quantity is “Percent Effect” (%).
How 0% and 100% were set is not recorded. Most values in the screen are low, and negative values occur.
This is an unselected part of the compounds tested.
A dash means the value is not listed here; it may have been measured.

Compound	Pks13 thioesterase	MtTrpRS	CoaBC	PfKRS1
Fc1ccccc1CN1CCC[C@H](Cn2nnc(-c3cccs3)n2)C1	-	23.43	-1.937	0.6076
CSCc1noc(-c2nc3c([nH]2)CCCNC3=O)n1	2.561	1.538	-3.44	8.431
Nc1cc(N2CCC(c3cc(Cc4ccccc4)n[nH]3)CC2)ccn1	-15.35	1.361	6.918	6.551
CN1CCC2(CC1)C(=O)N(CC1CC1)c1ccccc12	-9.1	-1.603	4.111	-2.177
O=C(NCc1ccco1)N1CCN(Cc2ccc3c(c2)CCO3)CC1	5.103	0.6482	1.695	2.011
CCN1CCCC12CCCN(c1ncccn1)C2 (stereo not drawn)	-9.273	6.135	-2.316	4.466
CCc1nc(C2CCCN(C(=O)NC3CC3)C2)no1 (stereo not drawn)	-18.28	-5.893	-3.394	-1.26
CC(C)c1nnc2n1CCN(c1nc3ccccc3o1)C2	-9.738	-16.65	4.016	2.344
CCN(CC)CCn1cc(NC2CCN(C(C)(C)C)CC2)cn1	-8.338	-0.7227	2.103	8.434
COCCNC(=O)C[C@@H]1COC[C@H]2CN(C(=O)COC)C[C@@H]12	-27.88	-	2.475	2.84
CCN1CCN(C2CCN(CCOc3ccc(F)cc3)CC2)C1=O	1.501	-4.187	-4	1.906
CN(CC1Cc2ccccc2CN1C)c1nc(N)nc2c1CCNCC2 (stereo not drawn)	-2.009	-5.509	-22.18	-2.628
CCN(C(=O)COC)C(c1ccc(Cl)cc1)c1ccccn1 (stereo not drawn)	6.051	-2.673	5.98	0.2069
CO[C@@H]1CCN(S(=O)(=O)c2cccnc2)[C@@H]2CN(CC3CC3)C[C@@H]21	-46.9	3.127	4.25	4.299
O=C(NC1CC1)[C@@H]1CN(Cc2ccc3c(c2)OCO3)C[C@H]2OCC[C@H]21	-21.85	0.2116	-0.4167	-2.413
CC(=O)N(C)CC(=O)NC1(c2ccc(F)cc2)CCCC1	-0.3587	-1.06	-2.073	-0.2555
CC(=O)N1C[C@@H](c2ccsc2)[C@@H]2CN(Cc3ccccc3C)CC[C@@H]21	-7.954	-	0.3614	-0.3343
NC(=O)NC(=O)C(c1ccccc1)N1CCN(Cc2ccccc2)CC1 (stereo not drawn)	-10.16	2.151	10.22	5.45
CCS(=O)(=O)NCC(Cc1cccc(F)c1)N1CCNC1=O (stereo not drawn)	-6.714	-0.06535	0	2.025
Cc1cc(CN2CCCC2c2noc(C3CC3)n2)c2ccccc2n1 (stereo not drawn)	-2.584	-1.652	9.781	-0.4235
CCC(=O)NCCNC(=O)c1nn(C)c(C)c1Cl	6.287	-0.8972	1.79	0.6859
Cc1ncc(S(=O)(=O)N(CC(C)C)c2cccc(O)c2)s1	-24.91	1.192	3.049	-0.3949
CO[C@H]1CN(C(=O)OC(C)(C)C)CC1NCc1cc[nH]c1 (stereo partly drawn)	-33.4	-0.2101	2.778	4.995
NC(=O)NC(=O)Cn1ccc2sccc2c1=O	-7.576	6.734	0.7937	7.763
Cc1cc(OCc2cccc(F)c2)ccc1NC(=O)C(C)NC(N)=O (stereo not drawn)	-1.33	15.44	15.13	-2.268
Cc1c(C(C)NC(=O)Nc2ccc(F)cc2F)cnn1C (stereo not drawn)	-36.78	-1.397	-0.2012	2.992
CCNC(=O)CCN1CCC(c2cc(N3CCOCC3)nc(C)n2)CC1	-11.62	2.089	5.263	2.457
O=C(c1cscn1)N1CCn2cnc(COCC3CC3)c2C1	-23.56	-1.992	1.895	8.27
CCOCc1nc(-c2ccc(F)cc2Cl)n(C)n1	-8.23	-0.1566	-0.4938	2.189
Cc1ncccc1NC(=O)[C@H]1C[C@@H]2CCN(Cc3ccsc3)C[C@H]2O1	-	-3.539	4.061	4.551
O=C1NCCCC12CCN(Cc1ccc(SC3CCCCC3)o1)C2 (stereo not drawn)	-19.85	0.7991	-7.452	-0.5226
CCc1nc(NC2CC(=O)N(CC3CCCCC3)C2)ncc1C (stereo not drawn)	-53.55	-4.078	9.709	5.193
CC(C)[C@H]1CN(c2ccncc2)C[C@@H]1NC(=O)C1(C#N)CCOCC1	-13.85	-2.448	1.942	-4.213
Cn1cc(S(=O)(=O)NC(=O)C2(c3ccccc3)CCC2)cn1	-27.99	0.854	6.374	9.994
Cc1ccc(CN2CCN(C3CSCCSC3)CC2CCO)o1 (stereo not drawn)	-26.06	-1.725	-5.34	1.594
Cn1cccc1C(=O)N1CC[C@H]2[C@@H]1CCC(=O)N2CC1CC1	-46.58	-4.017	1.057	4.096

2 of the entries, repeated:

| Compound | Pks13 thioesterase | MtTrpRS | CoaBC | PfKRS1 |
|---|---|---|---|---|
| `O=C(NC1CC1)[C@@H]1CN(Cc2ccc3c(c2)OCO3)C[C@H]2OCC[C@H]21` | -21.85 | 0.2116 | -0.4167 | -2.413 |
| `CCN(CC)CCn1cc(NC2CCN(C(C)(C)C)CC2)cn1` | -8.338 | -0.7227 | 2.103 | 8.434 |

Data taken from ChEMBL document CHEMBL3988442, “University of Dundee, Small-Polar-MMV Screening Library” (2021).